# The other results are listed elsewhere or left out.
# B1: HopZSSI-T (Helicobacter pylori), B5Z6D0 (protein)
# chain: MGSSHHHHHHSSGLVPRGSHMENLYFQGEDNGFFISAGYQIGEAAQMVKNTGELKKLSDTYENLSNLLTNFNNLNQAVTNASSPSEINAAIDNLKANTQGLTGEKTNSPAYQAVYLALNAAVGLWNVIAYNVQCGPGNSSQQSVTFEGQPGHNSSSINCNLTGYNNGVSGPLSIDNFKQLNQAYQVLQQALKQGVPVLNNTNQKIEVKVTTQTNGQSSKETTTTTTTNDAQTLLQEASKMIDVLTTNCPWVNHNPGQNGGAPWGLIRQECVSGFATEFSAVTSMIKNAQEIVTQAQSLNANQNNQNAPQDFNPYTSADRAFAQNMLNHAQAQAKILELADQMKKDLNTIPSQFITNYLAACRIDGTTPSQGVTNNTWGAGCAYVEETITALNNSLAHFGTQAEQIKQSELLARTILDFRGSLSTLNSTYNSITTTASNTPNSPFLKNLISQSTNPNNPGGLQAVYQVNQSAYSQLLSATQELGHNPFRRIGLISSQT
# Experiments:
# Experiment in all cases: glycan array binding signal (z-score within array); higher = stronger binding
# Conditions in all cases: glycan notation: IUPAC condensed, linker removed
# [1] = target: Gal(b1-4)GlcNAc(b1-6)GalNAc
# In short: (§1)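 Glycan array binding is given as a within-array Z-score, which can be read as non-binding when negative. The arrays, 3228 of them, came from the Consortium for Functional Glycomics database and were retained only where the protein sequence was available. Z-scores were averaged across arrays of the same protein sequence at different concentrations or buffers and across linkers.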
# [2] = target: Gal(b1-4)GlcNAc(b1-6)[Gal(b1-3)]GalNAc
# In short: as §1
# [3] = target: Gal(b1-4)GlcNAc(b1-6)[Gal(b1-4)GlcNAc(b1-3)]GalNAc
# In short: as §1
# Gal(b1-4)GlcNAc6P = target: Gal(b1-4)GlcNAc6P
# In short: as §1
# Gal(b1-6)Gal = target: Gal(b1-6)Gal
# In short: as §1
# Gal3S(b1-3)GalNAc = target: Gal3S(b1-3)GalNAc
# In short: as §1
# Gal3S(b1-3)GlcNAc = target: Gal3S(b1-3)GlcNAc
# In short: as §1
# [4] = target: Gal3S(b1-3)[Fuc(a1-4)]GlcNAc
# In short: as §1
# Gal3S(b1-4)Glc = target: Gal3S(b1-4)Glc
# In short: as §1
# Gal3S(b1-4)Glc6S = target: Gal3S(b1-4)Glc6S
# In short: as §1
# Gal3S(b1-4)GlcNAc = target: Gal3S(b1-4)GlcNAc
# In short: as §1
# [5] = target: Gal3S(b1-4)[Fuc(a1-3)]Glc6S
# In short: as §1
# [6] = target: Gal3S(b1-4)[Fuc(a1-3)]GlcNAc
# In short: as §1
# [7] = target: Gal3S(b1-4)[Fuc(a1-3)]GlcNAc6S
# In short: as §1
# Gal3S4S(b1-4)GlcNAc = target: Gal3S4S(b1-4)GlcNAc
# In short: as §1
# Gal3S6S(b1-4)GlcNAc = target: Gal3S6S(b1-4)GlcNAc
# In short: as §1
# Gal3S6S(b1-4)GlcNAc6S = target: Gal3S6S(b1-4)GlcNAc6S
# In short: as §1
# Gal4S(b1-4)GlcNAc = target: Gal4S(b1-4)GlcNAc
# In short: as §1
# Gal4S6S(b1-4)GlcNAc = target: Gal4S6S(b1-4)GlcNAc
# In short: as §1
# Gal6P(b1-4)GlcNAc = target: Gal6P(b1-4)GlcNAc
# In short: as §1
# Gal6S(b1-3)GlcNAc = target: Gal6S(b1-3)GlcNAc
# In short: as §1
# Gal6S(b1-3)GlcNAc6S = target: Gal6S(b1-3)GlcNAc6S
# In short: as §1
# Gal6S(b1-4)Glc = target: Gal6S(b1-4)Glc
# In short: as §1
# Gal6S(b1-4)Glc6S = target: Gal6S(b1-4)Glc6S
# In short: as §1
# Gal6S(b1-4)GlcNAc = target: Gal6S(b1-4)GlcNAc
# In short: as §1
# Gal6S(b1-4)GlcNAc6S = target: Gal6S(b1-4)GlcNAc6S
# In short: as §1
# GalNAc(a1-3)Gal = target: GalNAc(a1-3)Gal
# In short: as §1
# GalNAc(a1-3)GalNAc = target: GalNAc(a1-3)GalNAc
# In short: as §1
# [8] = target: GalNAc(a1-3)GalNAc(a1-3)Gal(a1-4)Gal(b1-4)GlcNAc
# In short: as §1
# [9] = target: GalNAc(a1-3)GalNAc(b1-3)Gal(a1-4)Gal(b1-4)Glc
# In short: as §1
# GalNAc(b1-3)Gal = target: GalNAc(b1-3)Gal
# In short: as §1
# [10] = target: GalNAc(b1-3)Gal(a1-4)Gal(b1-4)GlcNAc
# In short: as §1
# [11] = target: GalNAc(b1-3)Gal(a1-4)Gal(b1-4)GlcNAc(b1-3)Gal(b1-4)Glc
# In short: as §1
# [12] = target: GalNAc(b1-3)Gal(a1-6)Gal(b1-4)Glc
# In short: as §1
# GalNAc(b1-3)GalNAc = target: GalNAc(b1-3)GalNAc
# In short: as §1
# GalNAc(b1-3)GlcNAc = target: GalNAc(b1-3)GlcNAc
# In short: as §1
# GalNAc(b1-4)Gal(b1-4)Glc = target: GalNAc(b1-4)Gal(b1-4)Glc
# In short: as §1
# GalNAc(b1-4)GlcNAc = target: GalNAc(b1-4)GlcNAc
# In short: as §1
binder,measurement,setting,value
B1,glycan array binding signal (z-score),[1],1.25
same,glycan array binding signal (z-score),[2],-0.512
same,glycan array binding signal (z-score),[3],-0.032
same,glycan array binding signal (z-score),Gal(b1-4)GlcNAc6P,0.335
same,glycan array binding signal (z-score),Gal(b1-6)Gal,-0.78
same,glycan array binding signal (z-score),Gal3S(b1-3)GalNAc,0.474
same,glycan array binding signal (z-score),Gal3S(b1-3)GlcNAc,-0.166
same,glycan array binding signal (z-score),[4],-0.455
same,glycan array binding signal (z-score),Gal3S(b1-4)Glc,-0.329
same,glycan array binding signal (z-score),Gal3S(b1-4)Glc6S,0.411
same,glycan array binding signal (z-score),Gal3S(b1-4)GlcNAc,0.105
same,glycan array binding signal (z-score),[5],0.347
same,glycan array binding signal (z-score),[6],0.637
same,glycan array binding signal (z-score),[7],-0.409
same,glycan array binding signal (z-score),Gal3S4S(b1-4)GlcNAc,-0.342
same,glycan array binding signal (z-score),Gal3S6S(b1-4)GlcNAc,0.269
same,glycan array binding signal (z-score),Gal3S6S(b1-4)GlcNAc6S,0.286
same,glycan array binding signal (z-score),Gal4S(b1-4)GlcNAc,-0.151
same,glycan array binding signal (z-score),Gal4S6S(b1-4)GlcNAc,-0.807
same,glycan array binding signal (z-score),Gal6P(b1-4)GlcNAc,0.331
same,glycan array binding signal (z-score),Gal6S(b1-3)GlcNAc,-0.358
same,glycan array binding signal (z-score),Gal6S(b1-3)GlcNAc6S,-0.343
same,glycan array binding signal (z-score),Gal6S(b1-4)Glc,0.116
same,glycan array binding signal (z-score),Gal6S(b1-4)Glc6S,-0.2
same,glycan array binding signal (z-score),Gal6S(b1-4)GlcNAc,-0.54
same,glycan array binding signal (z-score),Gal6S(b1-4)GlcNAc6S,-0.115
same,glycan array binding signal (z-score),GalNAc(a1-3)Gal,-0.614
same,glycan array binding signal (z-score),GalNAc(a1-3)GalNAc,-0.111
same,glycan array binding signal (z-score),[8],0.199
same,glycan array binding signal (z-score),[9],-0.104
same,glycan array binding signal (z-score),GalNAc(b1-3)Gal,-0.269
same,glycan array binding signal (z-score),[10],0.351
same,glycan array binding signal (z-score),[11],0.07
same,glycan array binding signal (z-score),[12],-0.001
same,glycan array binding signal (z-score),GalNAc(b1-3)GalNAc,-0.395
same,glycan array binding signal (z-score),GalNAc(b1-3)GlcNAc,0.689
same,glycan array binding signal (z-score),GalNAc(b1-4)Gal(b1-4)Glc,-0.288
same,glycan array binding signal (z-score),GalNAc(b1-4)GlcNAc,2.32

# Rewritten as tab-separated lines: part of the list above.
binder	measurement	setting	value
B1	glycan array binding signal (z-score)	GalNAc(a1-3)Gal	-0.614
same	glycan array binding signal (z-score)	GalNAc(a1-3)GalNAc	-0.111
